Reference: patent EP4803549A1
These are yes or no findings as the source states them, for the method shown. Binding calls can cover weak binding; strength is not graded here. Where a sequence is shown, tags or fusion partners need not be part of it.

Target: cynomolgus monkey GPRC5D protein stably expressed on the 293T cell surface (cynomolgus monkey)
Assay: flow cytometry on 293T cells expressing cynomolgus monkey GPRC5D

- binding: binds
B1: camelid-derived anti-GPRC5D VHH-Fc antibody (antibody, human IgG1, V domains shown)
VH: EVQLQESGGGLVQAGGSLRLSCAASGIFLSASVMRWYRRAPGKQRELVASMLNSNTNYADSVKGRFTISRDNTKNTMYLQMNSLKPEDTAVYYCNAERSGVYWGQGTQVTVSS
